Assay results published in article PMC7006197.
These are yes or no findings as the source states them, for the method shown. Binding seen in cells or lysates may run through a third protein. Some binding calls cover weakened binding; strength is not graded here. Where a sequence is shown, tags or fusion partners need not be part of it.

Columns and labels:
[1] = biological target: T1, MBP-fused MYB21 (Arabidopsis thaliana) (UniProt Q9LK95); assay: pull-down; purified MBP, MBP-MYB21 or MBP-MYB24 held on amylose resin beads, incubated 2 h at 4 °C with concentrated total protein of TAP-RGA, TAP-RGL1 or TAP-RGL2 transgenic seedlings in RB buffer (25 mM imidazole, 100 mM NaCl, 50 mM Tris-Cl pH 7.8, 0.1% Tween20, 10% glycerol, 20 mM 2-mercaptoethanol); immunoblot with anti-c-myc antibody; only the target purified
T1 sequence: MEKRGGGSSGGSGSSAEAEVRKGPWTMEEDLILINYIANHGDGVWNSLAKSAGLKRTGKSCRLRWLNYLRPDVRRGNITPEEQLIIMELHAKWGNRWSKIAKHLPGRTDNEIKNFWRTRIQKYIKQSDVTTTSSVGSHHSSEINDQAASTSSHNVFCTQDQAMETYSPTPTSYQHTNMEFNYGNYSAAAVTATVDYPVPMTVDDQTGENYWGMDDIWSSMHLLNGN

[2] = biological target: T2, MBP-fused MYB24 (Arabidopsis thaliana) (UniProt Q9SPG9); assay: as above
T2 sequence: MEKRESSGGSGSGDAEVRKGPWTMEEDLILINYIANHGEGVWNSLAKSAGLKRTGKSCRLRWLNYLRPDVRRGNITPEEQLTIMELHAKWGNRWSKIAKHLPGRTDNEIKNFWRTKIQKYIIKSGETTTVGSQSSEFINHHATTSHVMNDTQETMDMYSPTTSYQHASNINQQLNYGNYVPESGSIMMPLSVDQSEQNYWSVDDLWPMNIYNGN

binding [1]: binds
binding [2]: binds
B1: tandem affinity purification (TAP) tag-fused RGL1 (protein, UniProt Q9C8Y3 1-511)
chain: MKREHNHRESSAGEGGSSSMTTVIKEEAAGVDELLVVLGYKVRSSDMADVAHKLEQLEMVLGDGISNLSDETVHYNPSDLSGWVESMLSDLDPTRIQEKPDSEYDLRAIPGSAVYPRDEHVTRRSKRTRIESELSSTRSVVVLDSQETGVRLVHALLACAEAVQQNNLKLADALVKHVGLLASSQAGAMRKVATYFAEGLARRIYRIYPRDDVALSSFSDTLQIHFYESCPYLKFAHFTANQAILEVFATAEKVHVIDLGLNHGLQWPALIQALALRPNGPPDFRLTGIGYSLTDIQEVGWKLGQLASTIGVNFEFKSIALNNLSDLKPEMLDIRPGLESVAVNSVFELHRLLAHPGSIDKFLSTIKSIRPDIMTVVEQEANHNGTVFLDRFTESLHYYSSLFDSLEGPPSQDRVMSELFLGRQILNLVACEGEDRVERHETLNQWRNRFGLGGFKPVSIGSNAYKQASMLLALYAGADGYNVEENEGCLLLGWQTRPLIATSAWRINRVE
